Measured values: paper PMC5465353
Results are given in words; binding and its absence hold for the method and conditions named. In cells and extracts the contact can be indirect. Some entries that bind do so weakly or less than the wild type. Tags and fused reporters may be left off the sequences shown. One block for each molecule: values may come before it.

The chains behind the UniProt entries cited, without tags or fusion partners.
UniProt Q9ULZ3: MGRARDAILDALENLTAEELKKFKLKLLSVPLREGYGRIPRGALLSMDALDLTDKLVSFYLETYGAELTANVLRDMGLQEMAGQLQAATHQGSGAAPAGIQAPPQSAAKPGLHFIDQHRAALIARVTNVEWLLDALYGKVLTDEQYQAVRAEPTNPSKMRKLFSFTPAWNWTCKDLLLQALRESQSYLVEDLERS

Key:
GST-POP2 (human) = molecular target: T1, GST-POP2 (human) (UniProt Q56P42); assay: pull-down; immobilized GST-POP2 incubated with cleared lysates of LPS-treated (4 h) THP-1 cells or iBMDM for 16 h at 4 °C; 50 mM HEPES pH 7.4, 120 mM NaCl, 10% glycerol, 2 mM EDTA, 0.5% Triton X-100; immunoblot; only the target purified
T1 sequence: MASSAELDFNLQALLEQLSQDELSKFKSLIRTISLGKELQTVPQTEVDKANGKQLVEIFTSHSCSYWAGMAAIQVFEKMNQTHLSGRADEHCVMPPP

[1] = molecular target: ASC (human, endogenous in THP-1 cells) (human (endogenous in THP-1)) (UniProt Q9ULZ3); assay: co-IP; THP-1 cells stably expressing His-POP2, LPS-primed (16 h) and nigericin-treated (45 min); sepharose-immobilized ASC antibody, 16 h at 4 °C; 50 mM HEPES pH 7.4, 150 mM NaCl, 10% glycerol, 2 mM EDTA, 0.5% Triton X-100; immunoblot

binding (GST-POP2 (human)): binds
Molecule: ASC (human, endogenous in THP-1 cells) (from UniProt Q9ULZ3 1-195)

binding [1]: binds
B1: His-POP2 (protein, UniProt Q56P42 1-97)
chain: T1 sequence
